PubChem BioAssay AID1159578 – Peter MacCallum Cancer Centre, 2015

- Screen: 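siRNA pools altering how lymphatic endothelial cells close a scratch wound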 (primary screen)
- Cell system: human lymphatic endothelial cells
- Reagents: siRNA pool against human genes, 40 nM
- Time to read-out: 48 h after transfection
- Read-out: 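Cells stained with dye and imaged after a scratch; covered wound area and nuclei counted, duplicates averaged, migration set against mock wells and turned into a robust z-score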
- Scale: migration robust z-score: higher = faster migration into the scratch; nuclei per well: higher = more cells in the well
- Rule for the call: 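Migration changed when robust z exceeds 2 or falls below -2 and mean nuclei number is at least 3300; otherwise not called changed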
- Meaning of the calls: active = migration changed; inactive = no migration change, or too few cells
The deposit covers about 18,000 reagents; shown is a random part of them. Of all reagents, about 1,030 (5.7%) are marked active. 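Inactive calls also include pools with fewer than 3300 nuclei, whose migration was not assessed.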 Raw values are not corrected between plates. Unmarked entries are inactive. Further read-outs or replicates are left out here.

gene | migration robust z-score | nuclei per well, duplicate mean
TLNRD1 (talin rod domain containing 1) | 3.02 (active) | 7232
KLHDC7B (kelch domain containing 7B) | -0.76 | 5627
NHSL3 (NHS like 3) | 1.39 | 5562
CHRNA3 (cholinergic receptor nicotinic alpha 3 subunit) | 0.08 | 3790
IGFL3 (IGF like family member 3) | -1.36 | 4654
ZNF274 (zinc finger protein 274) | 2.72 (active) | 6369
TRIM68 (tripartite motif containing 68) | -0.34 | 6360
PCYOX1L (prenylcysteine oxidase 1 like) | -0.06 | 5208
PHTF2 (putative homeodomain transcription factor 2) | -2.25 (active) | 5290
GMEB1 (glucocorticoid modulatory element binding protein 1) | -3.48 | 3080
ANKAR (ankyrin and armadillo repeat containing) | 0.25 | 5304
TNNI3 (troponin I3, cardiac type) | 0.12 | 6710
GCK (glucokinase) | -3.87 (active) | 4042
UBE4A (ubiquitination factor E4A) | 0.21 | 5358
CISD2 (CDGSH iron sulfur domain 2) | -1.05 | 4896
SP4 (Sp4 transcription factor) | 0.2 | 5764
TDRD5 (tudor domain containing 5) | 0.82 | 4920
PMVK (phosphomevalonate kinase) | -2.62 (active) | 3831
GBP6 (guanylate binding protein family member 6) | -0.31 | 6464
AFMID (arylformamidase) | 0.64 | 5840
PCDHGA8 (protocadherin gamma subfamily A, 8) | 3.41 (active) | 5858
CDS2 (CDP-diacylglycerol synthase 2) | -0.94 | 6341
ZNF676 (zinc finger protein 676) | -1.41 | 6109
TBC1D5 (TBC1 domain family member 5) | 0.02 | 5071
BPGM (bisphosphoglycerate mutase) | -1.17 | 5278
LCMT2 (leucine carboxyl methyltransferase 2) | 0.21 | 5422
TMTC2 (transmembrane O-mannosyltransferase targeting cadherins 2) | -0.68 | 6138
CARS1 (cysteinyl-tRNA synthetase 1) | -0.16 | 3410
EPPK1 (epiplakin 1) | 0.16 | 6040
ZNF20 (zinc finger protein 20) | 0.2 | 5910
MLST8 (MTOR associated protein MLST8) | 0.03 | 5634
CD300LG (CD300 molecule like family member g) | 0.08 | 5291
ABCA4 (ATP binding cassette subfamily A member 4) | -0.72 | 7116
REM2 (RRAD and GEM like GTPase 2) | -0.87 | 3980
EMILIN2 (elastin microfibril interfacer 2) | -1.2 | 5388
PDLIM7 (PDZ and LIM domain 7) | -0.82 | 4900
USO1 (USO1 vesicle transport factor) | -1.15 | 5304
LRRC14 (leucine rich repeat containing 14) | 0.36 | 5673
TRPV4 | -5.39 | 2984

An excerpt from the list above, as a working copy:
gene | migration robust z-score | nuclei per well, duplicate mean
GMEB1 (glucocorticoid modulatory element binding protein 1) | -3.48 | 3080
ANKAR (ankyrin and armadillo repeat containing) | 0.25 | 5304
